# According to PubChem BioAssay AID330 (DTP/NCI, 2004):
# The list does not hold the whole screen: it gathers tests that were run many times, whatever their T/C, doses with no T/C, and many T/C values between a quarter and a half above the control. Other doses and runs of a compound stand elsewhere. T/C gives the treated animals as a percentage of the vehicle group. Some entries give survivors of the animals treated and no T/C: the source holds a T/C of zero for them, seemingly a mark for toxic or unscored doses. Some doses without a T/C left all or most animals alive at the check, yet need not have been tolerated: the source hardly ever lists a survival T/C far under the control, and the zero likely stands for such cases as well. Counts of survivors are from the toxicity check (mostly the fifth day) where no day follows; animals may have died later. Schedule codes are those of the source, taken here to give the interval after Q, in days (D) or hours (H), and the number of doses after X. Some doses were run more than once; their values stand side by side, smallest first. Where survival is the endpoint, this PubChem deposit counts one and a half times the control or more as active, and values a quarter to a half above the control carry no call in these data; other NCI protocols may use other cut-offs. Some T/C values are followed by the survivors on the day toxicity was checked, most often the fifth; without a count, all were alive then.
# System: P388 leukemia ip, CD2F1 mice, survival T/C
# Assay: NCI In Vivo Anticancer Drug Screen. Data for tumor model P388 Leukemia (intraperitoneal) in CD2F1 (CDF1) mice
# Conditions: T/C endpoint: median survival time, higher T/C = longer survival
# [1] = dose: 240.0 mg/kg/injection, schedule: Q01DX005 (ip), vehicle: Klucel (hydroxypropylcellulose) (HPC)
# [2] = dose: 120.0 mg/kg/injection, schedule: Q01DX005 (ip), vehicle: saline with Tween-80
# [3] = dose: 240.0 mg/kg/injection, schedule: Q01DX005 (ip), vehicle: saline with Tween-80
# [4] = dose: 60.0 mg/kg/injection, schedule: Q01DX005 (ip), vehicle: saline with Tween-80
smiles,measurement,setting,value
C/C(=N\N=C(N)N)c1ccc(-c2ccccc2)cc1,survivor count,"dose: 100.0 mg/kg/injection, schedule: Q04DX002 (ip), vehicle: saline with Tween-80",1 of 6
O=C1Nc2ccccc2/C1=c1/sc2nc3ccccc3n2c1=O,survivor count,"dose: 100.0 mg/kg/injection, schedule: Q01DX001 (ip), vehicle: Klucel (hydroxypropylcellulose) (HPC)",6 of 6
COc1cc(/C=C/C(=O)C(CN(C)C)CN(C)C)cc(OC)c1OC,survivor count,"dose: 25.0 mg/kg/injection, schedule: Q01DX005 (ip), vehicle: Klucel (hydroxypropylcellulose) (HPC)",0 of 6
same,survivor count,"dose: 50.0 mg/kg/injection, schedule: Q01DX005 (ip), vehicle: Klucel (hydroxypropylcellulose) (HPC)",0 of 6
same,survivor count,"dose: 100.0 mg/kg/injection, schedule: Q01DX005 (ip), vehicle: Klucel (hydroxypropylcellulose) (HPC)",0 of 6
same,survivor count,"dose: 200.0 mg/kg/injection, schedule: Q01DX005 (ip), vehicle: Klucel (hydroxypropylcellulose) (HPC)",0 of 6
CC(C)CCCCCCCCCCCCC(O)CC(=O)O (configuration not stated),survivor count,"dose: 70.0 mg/kg/injection, schedule: Q01DX005 (ip), vehicle: Klucel + Tween-80",6 of 6
C/C(=N\NC(=S)Nc1ccc(C(=O)O)cc1)c1ccccn1,survivor count,"dose: 100.0 mg/kg/injection, schedule: Q01DX005 (ip), vehicle: saline with Tween-80",0 of 6
same,survivor count,"dose: 200.0 mg/kg/injection, schedule: Q01DX005 (ip), vehicle: saline with Tween-80",0 of 6
CCN(CCC#N)C(=O)c1cccc([N+](=O)[O-])c1,survivor count,[1],1 of 6
Cc1cc[n+](CCc2c[nH]c3ccccc23)cc1C,survivor count,"dose: 100.0 mg/kg/injection, schedule: Q01DX005 (ip), vehicle: saline",0 of 5
same,survivor count,"dose: 200.0 mg/kg/injection, schedule: Q01DX005 (ip), vehicle: saline",0 of 5
O=C(S[Si](c1ccccc1)(c1ccccc1)c1ccccc1)c1ccccc1,survivor count,"dose: 200.0 mg/kg/injection, schedule: Q01DX009 (ip), vehicle: saline",5 of 6
O=S1(=O)CCN(C2CCCC2)CC1,survivor count,"dose: 25.0 mg/kg/injection, schedule: Q01DX009 (ip), vehicle: Klucel (hydroxypropylcellulose) (HPC)",6 of 6
same,survivor count,"dose: 50.0 mg/kg/injection, schedule: Q01DX009 (ip), vehicle: Klucel (hydroxypropylcellulose) (HPC)",6 of 6
same,survivor count,"dose: 100.0 mg/kg/injection, schedule: Q01DX009 (ip), vehicle: Klucel (hydroxypropylcellulose) (HPC)",6 of 6
same,survivor count,"dose: 200.0 mg/kg/injection, schedule: Q01DX009 (ip), vehicle: Klucel (hydroxypropylcellulose) (HPC)",6 of 6
CNC(=O)OCc1c(C)oc(-c2ccccc2)c1COC(=O)NC,survivor count,"dose: 100.0 mg/kg/injection, schedule: Q01DX009 (ip), vehicle: distilled water + Tween-80",6 of 6
same,survivor count,"dose: 200.0 mg/kg/injection, schedule: Q01DX009 (ip), vehicle: distilled water + Tween-80",6 of 6
C=CCOc1cc2c(cc1C/C=C/c1cc(OC)c(OC)c(OC)c1)OCO2,survivor count,[2],6 of 6
same,survivor count,[3],6 of 6
NNc1ccc(Cl)nn1,survivor count,"dose: 30.0 mg/kg/injection, schedule: Q01DX005 (ip), vehicle: saline with Tween-80",0 of 6
same,survivor count,[4],0 of 6
same,survivor count,[2],0 of 6
same,survivor count,[3],0 of 6
C=C1C(=O)OC2C1CCC(C)C1C=CC(=O)C12C (configuration not stated),survivor count,"dose: 200.0 mg/kg/injection, schedule: Q04DX002 (ip), vehicle: saline with Tween-80",2 of 6
O=C1c2cc3c(cc2C(=O)c2cc(-c4ccccc4)c(-c4ccccc4)cc21)OCO3,survivor count,[4],6 of 6
same,survivor count,[2],6 of 6
Cn1cnc([N+](=O)[O-])c1Sc1ncnc2nc[nH]c12,T/C,"dose: 360.0 mg/kg/injection, schedule: Q01DX001 (ip), vehicle: saline with Tween-80",136 % of control
Cc1nn(-c2ccccc2)c2c1C(=O)CC(C)O2 (configuration not stated),survivor count,[1],0 of 6
CCCCCCCCCCCCCCCC[N+](C)(C)Cc1cnc[nH]1,T/C,"dose: 3.12 mg/kg/injection, schedule: Q01DX009 (ip), vehicle: saline with Tween-80",137 and 140 % of control
same,T/C,"dose: 6.25 mg/kg/injection, schedule: Q01DX009 (ip), vehicle: saline with Tween-80",134 and 137 % of control
same,T/C,"dose: 12.5 mg/kg/injection, schedule: Q01DX009 (ip), vehicle: saline with Tween-80","98 [5 of 6 alive], 123, 130 [4 of 6 alive], 138 % of control"
same,survivor count,"dose: 25.0 mg/kg/injection, schedule: Q01DX009 (ip), vehicle: saline with Tween-80",2 of 6 and 4 of 6
same,survivor count,"dose: 50.0 mg/kg/injection, schedule: Q01DX009 (ip), vehicle: saline with Tween-80",0 of 6 and 1 of 6
same,survivor count,"dose: 100.0 mg/kg/injection, schedule: Q01DX009 (ip), vehicle: saline with Tween-80",0 of 6
same,survivor count,"dose: 200.0 mg/kg/injection, schedule: Q01DX009 (ip), vehicle: saline with Tween-80",0 of 6
